Results deposited as PubChem BioAssay AID1259269 (Sanger Institute, 2017).
In all, the deposit lists 160 reagents; below is a part drawn at random. 108 of all reagents (68%) count as active. 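Viability cannot exceed 1; how synergy scores were computed is not described.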 The numbers tell different reagents against one gene apart. Viability is capped at 1. No sequences are given here. The record does not give: the amount of reagent, the time to read-out.

Screen: 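Retest knock-downs that hurt colorectal cancer cells more once an anchor drug is added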 (follow-up of hits)
System: HCC2998 human colorectal cancer cells
Reagent: single siRNA against human genes
Conditions: anchor drug BYL719 1 µM, cetuximab 5 µg/ml or trametinib 10 nM; DMSO vehicle as comparison arm
Detection: 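Survival versus non-targeting control siRNA, replicate means, under DMSO or drug (BYL719 1 µM, cetuximab 5 µg/ml, trametinib 10 nM) and a drug synergy score, higher meaning stronger synthetic lethality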
Direction: synergy score with BYL719 and synergy score with cetuximab and synergy score with trametinib: higher = stronger synthetic lethal effect with the drug; viability with DMSO: higher = more cells survive the knock-down; viability with trametinib: higher = more cells survive knock-down plus drug
Active means: 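Active if the synergy score exceeds 0.10 for at least one of BYL719, cetuximab or trametinib; otherwise inactive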
Meaning of the calls: active = synergy with at least one drug; inactive = no synergy with any drug

| target gene | reagent no. | synergy score with BYL719 | synergy score with cetuximab | synergy score with trametinib | viability with DMSO (fraction of control) | viability with trametinib (fraction of control) | activity call |
| --- | --- | --- | --- | --- | --- | --- | --- |
| MAPKAPK2 | 1 | 0.129 | 0.0458 | 0.138 | 1 | 0.424 | active |
| MAPKAPK2 | 2 | 0.0502 | 0.0294 | 0.31 | 1 | 0.252 | active |
| MAPKAPK2 | 3 | -0.0649 | -0.0294 | 0.036 | 0.159 | 0.0533 | inactive |
| MAPKAPK2 | 4 | 0.24 | 0.102 | 0.206 | 0.872 | 0.283 | active |
| MARK3 | 1 | -0.321 | 0.0662 | 0.106 | 0.768 | 0.325 | active |
| MARK3 | 2 | -0.285 | -0.0398 | 0.153 | 0.809 | 0.301 | active |
| MARK3 | 3 | -0.206 | 0.116 | 0.238 | 0.898 | 0.267 | active |
| MARK3 | 4 | -0.424 | -0.285 | 0.167 | 0.651 | 0.198 | active |

2 successive records from above:
| target gene | reagent no. | synergy score with BYL719 | synergy score with cetuximab | synergy score with trametinib | viability with DMSO (fraction of control) | viability with trametinib (fraction of control) | activity call |
| --- | --- | --- | --- | --- | --- | --- | --- |
| MAPKAPK2 | 1 | 0.129 | 0.0458 | 0.138 | 1 | 0.424 | active |
| MAPKAPK2 | 2 | 0.0502 | 0.0294 | 0.31 | 1 | 0.252 | active |

Further results follow:
| target gene | reagent no. | synergy score with BYL719 | synergy score with cetuximab | synergy score with trametinib | viability with DMSO (fraction of control) | viability with trametinib (fraction of control) | activity call |
| --- | --- | --- | --- | --- | --- | --- | --- |
| HSPB8 | 1 | -0.343 | -0.0541 | 0.189 | 0.709 | 0.209 | active |
| HSPB8 | 2 | -0.116 | 0.32 | -0.0941 | 1 | 0.656 | active |
| HSPB8 | 3 | -0.116 | 0.135 | 0.237 | 1 | 0.324 | active |
| HSPB8 | 4 | 0.159 | 0.309 | 0.232 | 0.754 | 0.192 | active |
| RPS6KA4 | 1 | -0.116 | 0 | 0.147 | 1 | 0.414 | active |
| RPS6KA4 | 2 | -0.231 | -0.222 | 0.137 | 0.778 | 0.3 | active |
| RPS6KA4 | 3 | -0.116 | 0 | 0.254 | 1 | 0.308 | active |
| RPS6KA4 | 4 | 0.00757 | 0.0747 | 0.0899 | 0.613 | 0.254 | inactive |
| NR2F2 | 1 | -0.116 | 0 | 0.192 | 1 | 0.369 | active |
| NR2F2 | 2 | 0.00756 | 0.00544 | 0.288 | 1 | 0.274 | active |
| NR2F2 | 3 | -0.116 | 0 | 0.192 | 1 | 0.37 | active |
| NR2F2 | 4 | -0.0952 | 0.0311 | 0.33 | 1 | 0.231 | active |
